Laboratory results: patent US20040077547A1, “FVIIa antagonists” (Genentech, Inc., priority 1999, published 2004)
These are yes or no findings as the source states them, for the method shown. Some binding calls cover weakened binding; strength is not graded here.

By UniProt entry, the sequences of proteins in these tests, tags left out. Where a name states a change or a piece, a line headed by the entry shows the natural chain unless it says otherwise. Residues count along the entry.
UniProt P08709, residues 61-466: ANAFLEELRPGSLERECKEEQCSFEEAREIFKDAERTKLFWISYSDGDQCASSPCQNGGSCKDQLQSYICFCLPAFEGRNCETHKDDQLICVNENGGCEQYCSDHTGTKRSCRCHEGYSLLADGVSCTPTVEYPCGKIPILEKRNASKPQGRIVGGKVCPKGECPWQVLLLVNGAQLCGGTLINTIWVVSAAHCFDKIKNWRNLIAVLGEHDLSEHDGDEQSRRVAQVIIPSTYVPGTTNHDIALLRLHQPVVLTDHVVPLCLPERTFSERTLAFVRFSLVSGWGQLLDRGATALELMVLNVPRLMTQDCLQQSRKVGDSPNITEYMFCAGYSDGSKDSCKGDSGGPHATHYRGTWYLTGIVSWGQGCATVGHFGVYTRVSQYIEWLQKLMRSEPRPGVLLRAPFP
UniProt P13726: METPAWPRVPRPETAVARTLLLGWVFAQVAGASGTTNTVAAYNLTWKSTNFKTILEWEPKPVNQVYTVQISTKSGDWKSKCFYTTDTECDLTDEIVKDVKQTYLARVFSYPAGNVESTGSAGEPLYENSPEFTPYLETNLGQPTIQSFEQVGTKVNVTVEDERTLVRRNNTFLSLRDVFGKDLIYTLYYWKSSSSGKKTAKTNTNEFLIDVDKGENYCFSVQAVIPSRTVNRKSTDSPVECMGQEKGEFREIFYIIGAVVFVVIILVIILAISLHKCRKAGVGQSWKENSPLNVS

Experiments:
[1] = molecular target: recombinant human FVIIa (human) (UniProt P08709); assay: FVIIa Binding ELISA of FIG. 4, compared with SEQ ID NO: 4
[2] = molecular target: covalently active site blocked TF-FVIIa (active site of FVIIa alkylated with biotinylated EGR chloromethylketone) (UniProt P13726); assay: polyvalent phage binding to coated wells
[3] = molecular target: recombinant human FVIIa (human) (UniProt P08709); assay: polyvalent phage binding to coated wells
[4] = molecular target: recombinant human FVIIa (human) (UniProt P08709); assay: FVIIa Binding ELISA of FIG. 4, compared with TF65 (SEQ ID NO: 4)

## EEWEVLCWTWETCERGEG [TF100]
[1]
  binding: binds

## SAEWEVLCWTWEGCGSVGLV [TF53 peptide-phage (polyvalent phage clone from Pool A bearing …)]
[2]
  binding: binds
[3]
  binding: binds

## EEWEVLCWTWETCER [TF183]
[4]
  binding: binds
